{"source": "PubChem BioAssay AID1259405 (NCATS, 2018)", "aim": "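Knock-downs that lift recombinant protein yield in hamster ovary cells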 (primary screen)", "cell system": "Chinese hamster CHO-K1 ovary cells with stable secreted eGFP expression", "reagents": "single siRNA against mouse genes, 0.8 pmol siRNA per well (2 µl of 400 nM stock)", "duration": "3 days", "detection": "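Percent of the per-plate non-targeting control median for intracellular GFP per well by laser scanning cytometry and for cell viability by ATP luminescence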", "direction": "GFP, % of control: higher = more GFP per well, higher productivity; viability (ATP), % of control: higher = more viable cells (more ATP)", "rule for the call": "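Called active when intracellular GFP, relative to negative control, is at or above 120%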", "note": "The deposit covers about 50,000 reagents; this is an unselected part. About 4,000 of all reagents (8%) count as active. 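Mouse siRNA library applied to hamster cells; one well for each siRNA.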 The numbers tell different reagents against one gene apart. Reagent sequences are not shown."}
{"Target gene":"Myo1c","siRNA no.":1,"GFP, % of control":70.8,"viability (ATP), % of control":105,"outcome":"inactive"}
{"Target gene":"Myo1c","siRNA no.":2,"GFP, % of control":24.7,"viability (ATP), % of control":20.3,"outcome":"inactive"}
{"Target gene":"Galnt18","siRNA no.":1,"GFP, % of control":158,"viability (ATP), % of control":124,"outcome":"active"}
{"Target gene":"Galnt18","siRNA no.":2,"GFP, % of control":117,"viability (ATP), % of control":100,"outcome":"inactive"}
{"Target gene":"Galnt18","siRNA no.":3,"GFP, % of control":116,"viability (ATP), % of control":119,"outcome":"inactive"}
{"Target gene":"Hpdl","siRNA no.":1,"GFP, % of control":97.9,"viability (ATP), % of control":94.5,"outcome":"inactive"}
{"Target gene":"Hpdl","siRNA no.":2,"GFP, % of control":70.3,"viability (ATP), % of control":50.9,"outcome":"inactive"}
{"Target gene":"Hpdl","siRNA no.":3,"GFP, % of control":59.5,"viability (ATP), % of control":72.9,"outcome":"inactive"}
{"Target gene":"Or10g3","siRNA no.":1,"GFP, % of control":36.8,"viability (ATP), % of control":17.5,"outcome":"inactive"}
{"Target gene":"Or10g3","siRNA no.":2,"GFP, % of control":83.5,"viability (ATP), % of control":93.8,"outcome":"inactive"}
{"Target gene":"Or10g3","siRNA no.":3,"GFP, % of control":19.7,"viability (ATP), % of control":39.2,"outcome":"inactive"}
{"Target gene":"Slmap","siRNA no.":1,"GFP, % of control":69,"viability (ATP), % of control":72,"outcome":"inactive"}
{"Target gene":"Slmap","siRNA no.":2,"GFP, % of control":100,"viability (ATP), % of control":58.8,"outcome":"inactive"}
{"Target gene":"Slmap","siRNA no.":3,"GFP, % of control":66.4,"viability (ATP), % of control":71.3,"outcome":"inactive"}
{"Target gene":"Cdkl1","siRNA no.":1,"GFP, % of control":65.9,"viability (ATP), % of control":69.3,"outcome":"inactive"}
{"Target gene":"Mllt11","siRNA no.":1,"GFP, % of control":47.3,"viability (ATP), % of control":66.5,"outcome":"inactive"}
{"Target gene":"Mllt11","siRNA no.":2,"GFP, % of control":85.2,"viability (ATP), % of control":81.5,"outcome":"inactive"}
{"Target gene":"Mllt11","siRNA no.":3,"GFP, % of control":56.5,"viability (ATP), % of control":62.4,"outcome":"inactive"}
{"Target gene":"Pate14","siRNA no.":1,"GFP, % of control":78.3,"viability (ATP), % of control":78.7,"outcome":"inactive"}
{"Target gene":"Pate14","siRNA no.":2,"GFP, % of control":77.7,"viability (ATP), % of control":76.9,"outcome":"inactive"}
{"Target gene":"Pate14","siRNA no.":3,"GFP, % of control":129,"viability (ATP), % of control":81.8,"outcome":"active"}
{"Target gene":"Gapvd1","siRNA no.":1,"GFP, % of control":123,"viability (ATP), % of control":86.4,"outcome":"active"}
{"Target gene":"Gapvd1","siRNA no.":2,"GFP, % of control":58.3,"viability (ATP), % of control":66.2,"outcome":"inactive"}
{"Target gene":"Gapvd1","siRNA no.":3,"GFP, % of control":49.5,"viability (ATP), % of control":66,"outcome":"inactive"}
{"Target gene":"Cacng2","siRNA no.":1,"GFP, % of control":96.2,"viability (ATP), % of control":46.7,"outcome":"inactive"}
{"Target gene":"Cacng2","siRNA no.":2,"GFP, % of control":54.3,"viability (ATP), % of control":55,"outcome":"inactive"}
{"Target gene":"Cacng2","siRNA no.":3,"GFP, % of control":106,"viability (ATP), % of control":79.4,"outcome":"inactive"}

Laid out differently: 2 of the entries above
{"Target gene": "Mllt11", "siRNA no.": 3, "GFP, % of control": 56.5, "viability (ATP), % of control": 62.4, "outcome": "inactive"}
{"Target gene": "Pate14", "siRNA no.": 1, "GFP, % of control": 78.3, "viability (ATP), % of control": 78.7, "outcome": "inactive"}
